PubChem BioAssay AID652243 – Drosophila RNAi Screening Center – 2013

Assay: 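Knock-downs that decrease or increase androgen receptor reporter signal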 (primary screen)
System: Drosophila S2R+ cells
Reagent: long dsRNA against Drosophila genes
Duration: 72 h (48 h, then 24 h hormone)
Conditions: synthetic androgen R1881 at 10 nM for 24 h
Read-out: 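Firefly light from an androgen-responsive reporter and Renilla control light per well, raw and unnormalised, for each of two replicates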
Scale: firefly reporter light: higher = more light from androgen-responsive reporter; Renilla control light: higher = more constitutive control signal (cell number, transfection)
Active means: 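Across duplicate plates, a knock-down whose log firefly/Renilla ratio shifted a set fold down or up from the GFP/LacZ control mean was a hit; the downward cut appears as both 1.5 and 3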
Calls: active = hit: reporter lowered or raised; inactive = no hit
In all, the deposit lists about 24,000 reagents; below is an unselected part of those that have a named target and a result. In the full data, 246 (1%) are marked active. 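Plates not normalised; calls are printed but the firefly/Renilla ratio behind them is not deposited; fold cut for lowering reported inconsistently.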 Raw values are not corrected between plates. Reagent sequences are not shown. Not given: the amount of reagent.

The opening 2 records, to show the layout:
target	amplicon	firefly reporter light, replicate 1	firefly reporter light, replicate 2	Renilla control light, replicate 1	Renilla control light, replicate 2	activity call
CG11839	DRSC14398	2.16e5	2.41e5	2.29e6	2.31e6	inactive
CG14286	DRSC14767	1.77e5	2.28e5	2.75e6	3.02e6	inactive

Results, from the start:
target	amplicon	firefly reporter light, replicate 1	firefly reporter light, replicate 2	Renilla control light, replicate 1	Renilla control light, replicate 2	activity call
CG11839	DRSC14398	2.16e5	2.41e5	2.29e6	2.31e6	inactive
CG14286	DRSC14767	1.77e5	2.28e5	2.75e6	3.02e6	inactive
CG14286	DRSC29125	7.16e5	1.06e6	1.52e6	1.50e6	inactive
CG7460	DRSC10850	1.76e5	2.37e5	1.71e6	2.26e6	inactive
CG7460	DRSC27927	1.16e6	8.79e5	2.54e6	1.62e6	inactive
CG7564	DRSC10880	1.56e5	1.25e5	2.29e6	1.31e6	inactive
CG7564	DRSC28225	4.04e5	7.33e5	1.74e6	2.13e6	inactive
CG31760	DRSC02590	1.39e5	1.76e5	1.05e6	1.09e6	inactive
CG31760	DRSC27108	5.99e5	5.46e5	6.33e5	5.87e5	inactive
BG642312	DRSC37799	3.88e5	2.55e5	1.56e6	1.04e6	inactive
GlnRS	DRSC14140	62375	52774	4.19e5	4.49e5	inactive
melt	DRSC11367	2.00e5	1.88e5	2.66e6	2.58e6	inactive
Cpr23B	DRSC23504	5.63e5	7.10e5	7.25e5	7.88e5	inactive
Mlp84B	DRSC12596	37250	52271	1.32e6	1.19e6	inactive
SCCRO	DRSC10844	2.02e5	1.66e5	1.45e6	1.31e6	inactive
SCCRO	DRSC29998	1.12e6	7.73e5	1.13e6	9.96e5	inactive
cass	DRSC01850	1.06e6	1.60e6	8.95e5	1.49e6	inactive
cass	DRSC29928	3.54e5	4.18e5	8.04e5	9.72e5	inactive
CG31601	DRSC03678	1.79e5	1.81e5	5.39e5	5.65e5	inactive
CG6928	DRSC10749	7.36e5	8.72e5	1.29e6	1.49e6	inactive
Roc2	DRSC07313	3.37e5	2.29e5	2.35e6	1.43e6	inactive
Roc2	DRSC27174	3.08e5	3.85e5	8.59e5	8.68e5	inactive
shtd	DRSC20166	81643	96186	6.40e5	7.46e5	inactive
shtd	DRSC27760	2.80e5	3.06e5	5.69e5	7.67e5	inactive
CG9062	DRSC07327	4.54e5	2.50e5	1.69e6	1.41e6	inactive
CG9062	DRSC27558	2.87e5	2.89e5	4.53e5	8.00e5	inactive
HLH54F	DRSC07438	63585	52500	8.96e5	8.96e5	inactive
nod	DRSC18900	4.06e5	4.13e5	6.99e5	4.04e5	inactive
nod	DRSC20356	1.19e5	1.15e5	7.33e5	8.66e5	inactive
CG3368	DRSC15485	59203	77519	4.90e5	4.66e5	inactive
Vap33	DRSC18384	1.29e5	90719	1.24e6	7.48e5	inactive
GLS	DRSC07261	8.15e5	1.19e6	1.55e6	1.43e6	inactive
GLS	DRSC25962	2.84e5	2.46e5	4.92e5	5.10e5	inactive
CG32750	DRSC18848	2.66e5	3.63e5	2.18e6	2.65e6	inactive
CG6403	DRSC16033	4.79e5	4.56e5	2.63e6	4.26e6	inactive
Sox21a	DRSC10819	1.47e5	1.54e5	1.11e6	1.31e6	inactive
Sox21a	DRSC25435	3.69e5	3.00e5	6.02e5	5.10e5	inactive
Set1	DRSC38775	6.99e5	6.69e5	1.37e6	1.50e6	inactive
CG44153	DRSC02228	6.82e5	6.09e5	2.52e6	2.15e6	inactive
CG44153	DRSC02229	1.85e5	1.46e5	9.33e5	9.72e5	inactive
CG44153	DRSC02231	1.36e5	2.08e5	9.69e5	1.25e6	inactive
CG44153	DRSC02233	1.33e5	1.66e5	9.47e5	1.20e6	inactive
CG44153	DRSC02902	2.03e5	2.09e5	1.52e6	1.61e6	inactive
CG44153	DRSC02903	1.95e5	1.68e5	1.12e6	1.23e6	inactive
CG44153	DRSC28467	4.18e5	6.34e5	8.16e5	9.90e5	inactive
CG44153	DRSC38921	7.03e5	8.50e5	1.65e6	1.77e6	inactive
CG4611	DRSC10434	1.78e5	2.56e5	2.52e6	3.38e6	inactive
CG4611	DRSC26382	2.78e5	2.67e5	1.10e6	1.07e6	active
CG4611	DRSC39046	3.09e5	7.59e5	8.71e5	2.19e6	inactive
brat	DRSC03497	7.83e5	8.02e5	1.72e6	1.54e6	inactive
brat	DRSC36513	7.39e5	9.24e5	1.53e6	2.03e6	inactive
brat	DRSC37393	5.34e5	4.44e5	1.38e6	1.52e6	inactive
hdly	DRSC15849	2.90e5	3.92e5	3.23e6	2.99e6	inactive
CR10102	DRSC05963	62108	66127	1.59e6	1.59e6	inactive
CG6441	DRSC02957	1.50e5	1.80e5	1.40e6	1.07e6	inactive
Cyp4aa1	DRSC07368	58555	44502	9.80e5	9.80e5	inactive
Cyp4aa1	DRSC27648	2.98e5	2.56e5	7.18e5	6.97e5	inactive
CG14277	DRSC02380	2.51e5	1.87e5	2.34e6	1.57e6	inactive
